Measurements taken from PubChem BioAssay AID463183 (Sanford-Burnham Center for Chemical Genomics, 2010).
This list was built around the results that the source calls inconclusive (neither active nor inactive); the mix of calls is not that of the screen. The source made the active and inactive calls.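 Rule for the calls: active = inhibition of lipid droplet metric at least 50%, with more than 300 cells in each of four replicates; inconclusive = wells under 300 cells, flagged as toxic or low count; inactive = the rest.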

experiment: hepatocyte lipid droplet accumulation inhibitors, confirmation, imaging, AML12 mouse hepatocytes, single concentration, high-content (AID 463183); conditions: BODIPY lipid droplet imaging, at 5.2 µM, hits give high values, droplets induced with 100 µM oleic acid;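 note: plate controls were DMSO with oleic acid for no effect and 5 µM Triacsin-C for full effect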

| Compound | inhibition |
| --- | --- |
| COc1ccc(S(=O)(=O)N(CC(=O)N2CCCCCC2)c2ccccc2OC)cc1 | inactive: -11.8% |
| Cc1[nH]c2ccccc2c1/C=N/Nc1nc(Nc2ccc(F)cc2)nc(N2CCOCC2)n1 | inconclusive: 104% |
| Cc1c(S(=O)(=O)c2ccccn2)c(N)n(Cc2ccccc2)c1C | inactive: 7.88% |
| C#CC(=O)N(c1ccc(OC)c(OC)c1)C(C(=O)NC1CCCC1)c1cccs1 (stereo unspecified) | inconclusive: -77.6% |
| COc1ccc(N(C(=O)CCl)C(C(=O)NCCc2ccccc2)c2cccs2)cc1Cl (stereo unspecified) | inconclusive: 18% |
| Cc1nc(NC(=O)C2CC2)sc1C(=O)N(C)C | inactive: -16.7% |

Exported with bars between the fields: entries from further up
Compound | inhibition
COc1ccc(S(=O)(=O)N(CC(=O)N2CCCCCC2)c2ccccc2OC)cc1 | inactive: -11.8%
Cc1[nH]c2ccccc2c1/C=N/Nc1nc(Nc2ccc(F)cc2)nc(N2CCOCC2)n1 | inconclusive: 104%
